This is an account of results in patent publication US20060275900A1, “Methods for in vitro expansion and transdifferentiation of human pancreatic acinar cells into insulin-producing cells” (Becton, Dickinson and Company, priority 2002, published 2006).

For the data set, the system named is primary human pancreatic acinar cells, IP cells, putative insulin producing cells. The experiment in a line: 12K microarray mRNA expression at Day 3, Day 8 and Day 16 (Tables 6 and 7). The data set is classed as cell-based.
The mark [1] stands for this setting: mRNA expression signal on 12K microarray, Day 3 culture (primary human pancreatic acinar cells).
[2] abbreviates: mRNA expression signal on 12K microarray, Day 8 culture (IP cells).
Setting [3] is: mRNA expression signal on 12K microarray, Day 16 culture (putative insulin producing cells).
Where [4] appears, read: mRNA expression signal on 12K microarray, Day 3 cells (primary human pancreatic acinar cells).
[5] abbreviates: mRNA expression signal on 12K microarray, Day 8 cells (IP cells).
Where [6] appears, read: mRNA expression signal on 12K microarray, Day 16 cells (putative insulin producing cells).
Setting [7] is: 12K microarray mRNA expression level of the gene at Day 3 (primary human pancreatic acinar cells).
[8] abbreviates: 12K microarray mRNA expression level of the gene at Day 8 (IP cells).
[9] abbreviates: 12K microarray mRNA expression level of the gene at Day 16 (putative insulin producing cells).
Setting [10] is: mRNA expression level of the gene named in the row, 12K microarray, Day 3 culture (primary human pancreatic acinar cells).
The mark [11] stands for this setting: mRNA expression level of the gene named in the row, 12K microarray, Day 8 culture (IP cells).
Setting [12] is: mRNA expression level of the gene named in the row, 12K microarray, Day 16 culture (putative insulin producing cells).

Turning to endothelin 1, the day3 under setting [1] stood at 866.4561. Under setting [2], this substance gave a day8 of 1810. Further, the day16 under setting [3] was 403.431.

Under setting [4], transforming growth factor; beta came in with a day3 of 112.4415. Under setting [5], this substance registered a day8 of 208. Under setting [6], the day16 was determined as 213.3211.

Substance hypothetical protein yielded a day3 under setting [7] of 1188.199. Moreover, the day8 under setting [8] is given as 1490. In addition, under setting [9], the day16 is 1593.015.

As for connective tissue growth factor, under setting [7], the day3 came to 596.4123. Under setting [8], this substance came in with a day8 of 537. Under setting [9], the day16 is 1071.517.

For the substance neuregulin 1, the day3 under setting [4] is reported as 89.51. The day8 under setting [5] was 234. Also, the day16 under setting [6] turned out to be 201.3025.

catalase had a day3 under setting [4] of 160.7098. The substance also returned a day8 under setting [5] of 239. Also, under setting [6], the day16 was determined as 199.9283.

As for interleukin 1; beta, under setting [1], the day3 turned out to be 116.7675. Under setting [2], the day8 was 415. Besides, the day16 under setting [3] was found to be 119.0156.

Consider carbonic anhydrase II, for which, under setting [4], the day3 came to 283.4506. This substance also gave a day8 under setting [5] of 172. The substance further displayed a day16 under setting [6] of 195.9099.

Under setting [7], cytochrome c showed a day3 of 547.6708. The same substance yielded a day8 under setting [8] of 442. For the same substance, under setting [9], the day16 is 517.6125.

On to paxillin, for which the day3 under setting [10] is 313.7788. Besides, under setting [11], the day8 was determined as 334. This substance also showed a day16 under setting [12] of 181.2995.

With interleukin 1; alpha, the day3 under setting [1] is recorded as 103.386. Besides, under setting [2], the day8 amounted to 375. This substance returned a day16 under setting [3] of 66.6314.

insulin: the day3 under setting [10] worked out at 367.022. Besides, the day8 under setting [11] amounted to 113. Moreover, under setting [12], the day16 was determined as 176.7437.

The substance dihydrofolate reductase showed a day3 under setting [4] of 148.8142. The day8 under setting [5] is listed as 59.6. The day16 under setting [6] was determined as 213.6217.

For transforming growth factor; beta-, the day3 under setting [1] is given as 1221.083. This substance also gave a day8 under setting [2] of 2060. Besides, the day16 under setting [3] worked out at 8540.86.
